Reference: the supplement of paper PMC8728848
Some of the results follow.

How the values were obtained:
Assay in all cases: glycan array binding signal (z-score within array); higher = stronger binding
Details in all cases: glycan notation: IUPAC condensed, linker removed
Gal(a1-3)Gal(b1-3)GlcNAc = biological target: Gal(a1-3)Gal(b1-3)GlcNAc
Method in brief: (§1)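 The Consortium for Functional Glycomics database supplied 3228 glycan arrays, of which those lacking an available protein sequence were dropped. The binding signal, a within-array Z-score, was averaged across arrays of the same protein sequence and across linkers. Negative scores can be read as non-binding.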

[1] = biological target: Gal(a1-3)Gal(b1-3)GlcNAc(b1-2)Man
Method in brief: as §1

[2] = biological target: Gal(a1-3)Gal(b1-3)GlcNAc(b1-2)Man(a1-3)[Gal(a1-3)Gal(b1-3)GlcNAc(b1-2)Man(a1-6)]Man(b1-4)GlcNAc(b1-4)GlcNAc
Method in brief: as §1

[3] = biological target: Gal(a1-3)Gal(b1-3)GlcNAc(b1-3)GalNAc
Method in brief: as §1

[4] = biological target: Gal(a1-3)Gal(b1-3)GlcNAc(b1-6)GalNAc
Method in brief: as §1

[5] = biological target: Gal(a1-3)Gal(b1-3)[Fuc(a1-4)]GlcNAc(b1-2)Man(a1-3)[Gal(a1-3)Gal(b1-3)[Fuc(a1-4)]GlcNAc(b1-2)Man(a1-6)]Man(b1-4)GlcNAc(b1-4)GlcNAc
Method in brief: as §1

Gal(a1-3)Gal(b1-4)Glc = biological target: Gal(a1-3)Gal(b1-4)Glc
Method in brief: as §1

Gal(a1-3)Gal(b1-4)GlcNAc = biological target: Gal(a1-3)Gal(b1-4)GlcNAc
Method in brief: as §1

[6] = biological target: Gal(a1-3)Gal(b1-4)GlcNAc(b1-2)Man
Method in brief: as §1

[7] = biological target: Gal(a1-3)Gal(b1-4)GlcNAc(b1-2)Man(a1-3)[Gal(a1-3)Gal(b1-4)GlcNAc(b1-2)Man(a1-6)]Man(b1-4)GlcNAc(b1-4)GlcNAc
Method in brief: as §1

[8] = biological target: Gal(a1-3)Gal(b1-4)GlcNAc(b1-3)GalNAc
Method in brief: as §1

[9] = biological target: Gal(a1-3)Gal(b1-4)GlcNAc(b1-6)GalNAc
Method in brief: as §1

[10] = biological target: Gal(a1-3)Gal(b1-4)[Fuc(a1-3)]GlcNAc
Method in brief: as §1

[11] = biological target: Gal(a1-3)Gal(b1-4)[Fuc(a1-3)]GlcNAc(b1-2)Man(a1-3)[Gal(a1-3)Gal(b1-4)[Fuc(a1-3)]GlcNAc(b1-2)Man(a1-6)]Man(b1-4)GlcNAc(b1-4)GlcNAc
Method in brief: as §1

Gal(a1-3)GalNAc = biological target: Gal(a1-3)GalNAc
Method in brief: as §1

[12] = biological target: Gal(a1-3)[Gal(a1-4)]Gal(b1-4)GlcNAc
Method in brief: as §1

[13] = biological target: Gal(a1-4)Gal(b1-3)GlcNAc(b1-2)Man(a1-3)[Gal(a1-4)Gal(b1-3)GlcNAc(b1-2)Man(a1-6)]Man(b1-4)GlcNAc(b1-4)GlcNAc
Method in brief: as §1

Gal(a1-4)Gal(b1-4)Glc = biological target: Gal(a1-4)Gal(b1-4)Glc
Method in brief: as §1

Gal(a1-4)Gal(b1-4)GlcNAc = biological target: Gal(a1-4)Gal(b1-4)GlcNAc
Method in brief: as §1

[14] = biological target: Gal(a1-4)Gal(b1-4)GlcNAc(b1-2)Man(a1-3)[Gal(a1-4)Gal(b1-4)GlcNAc(b1-2)Man(a1-6)]Man(b1-4)GlcNAc(b1-4)GlcNAc
Method in brief: as §1

[15] = biological target: Gal(a1-4)Gal(b1-4)GlcNAc(b1-3)Gal(b1-4)Glc
Method in brief: as §1

Gal(a1-4)GlcNAc = biological target: Gal(a1-4)GlcNAc
Method in brief: as §1

Gal(a1-6)Glc = biological target: Gal(a1-6)Glc
Method in brief: as §1

Gal(b1-2)Gal = biological target: Gal(b1-2)Gal
Method in brief: as §1

Gal(b1-3)Gal = biological target: Gal(b1-3)Gal
Method in brief: as §1

Gal(b1-3)Gal(b1-4)GlcNAc = biological target: Gal(b1-3)Gal(b1-4)GlcNAc
Method in brief: as §1

Gal(b1-3)GalNAc = biological target: Gal(b1-3)GalNAc
Method in brief: as §1

[16] = biological target: Gal(b1-3)GalNAc(a1-3)[Fuc(a1-2)]Gal(b1-4)Glc
Method in brief: as §1

[17] = biological target: Gal(b1-3)GalNAc(a1-3)[Fuc(a1-2)]Gal(b1-4)GlcNAc
Method in brief: as §1

Gal(b1-3)GalNAc(b1-3)Gal = biological target: Gal(b1-3)GalNAc(b1-3)Gal
Method in brief: as §1

[18] = biological target: Gal(b1-3)GalNAc(b1-3)Gal(a1-4)Gal(b1-4)Glc
Method in brief: as §1

[19] = biological target: Gal(b1-3)GalNAc(b1-4)Gal(b1-4)Glc
Method in brief: as §1

[20] = biological target: Gal(b1-3)GalNAc(b1-4)[Neu5Ac(a2-3)]Gal(b1-4)Glc
Method in brief: as §1

Gal(b1-3)GlcNAc = biological target: Gal(b1-3)GlcNAc
Method in brief: as §1

[21] = biological target: Gal(b1-3)GlcNAc(a1-3)Gal(b1-4)GlcNAc
Method in brief: as §1

[22] = biological target: Gal(b1-3)GlcNAc(a1-6)Gal(b1-4)GlcNAc
Method in brief: as §1

Gal(b1-3)GlcNAc(b1-2)Man = biological target: Gal(b1-3)GlcNAc(b1-2)Man
Method in brief: as §1

[23] = biological target: Gal(b1-3)GlcNAc(b1-2)Man(a1-3)[Gal(b1-3)GlcNAc(b1-2)Man(a1-6)]Man(b1-4)GlcNAc(b1-4)GlcNAc
Method in brief: as §1

B1: Aap lectin (Staphylococcus epidermidis) (protein)
chain: VNLNYSSPFMSLLSMPADSSSNNTKNTIDIPPTTVKGRDNYDFYGRVDIESNPTDLNATNLTRYNYGQPPGTTTAGAVQFKNQVSFDKDFDFNIRVANNRQSNTTGADGWGFMFSKKDGDDFLKNGGILREKGTPSAAGFRIDTGYYNNDPLDKIQKQAGQGYRGYGTFVKNDSQGNTSKVGSGTPSTDFLNYADNTTNDLDGKFHGQKLNNVNLKYNASNQTFTATYAGKTWTATLSELGLSPTDSYNFLVTSS
Gal(a1-3)Gal(b1-3)GlcNAc
  glycan array binding signal (z-score): 1.93
[1]
  glycan array binding signal (z-score): 2.18
[2]
  glycan array binding signal (z-score): 2.88
[3]
  glycan array binding signal (z-score): 1.24
[4]
  glycan array binding signal (z-score): 1.11
[5]
  glycan array binding signal (z-score): 2.41
Gal(a1-3)Gal(b1-4)Glc
  glycan array binding signal (z-score): -0.731
Gal(a1-3)Gal(b1-4)GlcNAc
  glycan array binding signal (z-score): -0.335
[6]
  glycan array binding signal (z-score): -0.611
[7]
  glycan array binding signal (z-score): 1.09
[8]
  glycan array binding signal (z-score): -0.631
[9]
  glycan array binding signal (z-score): -0.434
[10]
  glycan array binding signal (z-score): -0.882
[11]
  glycan array binding signal (z-score): -0.777
Gal(a1-3)GalNAc
  glycan array binding signal (z-score): -0.231
[12]
  glycan array binding signal (z-score): -0.627
[13]
  glycan array binding signal (z-score): 1.06
Gal(a1-4)Gal(b1-4)Glc
  glycan array binding signal (z-score): -0.537
Gal(a1-4)Gal(b1-4)GlcNAc
  glycan array binding signal (z-score): -0.252
[14]
  glycan array binding signal (z-score): -0.793
[15]
  glycan array binding signal (z-score): 1.77
Gal(a1-4)GlcNAc
  glycan array binding signal (z-score): -0.773
Gal(a1-6)Glc
  glycan array binding signal (z-score): -0.736
Gal(b1-2)Gal
  glycan array binding signal (z-score): -0.782
Gal(b1-3)Gal
  glycan array binding signal (z-score): -0.836
Gal(b1-3)Gal(b1-4)GlcNAc
  glycan array binding signal (z-score): -0.133
Gal(b1-3)GalNAc
  glycan array binding signal (z-score): -0.294
[16]
  glycan array binding signal (z-score): -0.917
[17]
  glycan array binding signal (z-score): -0.68
Gal(b1-3)GalNAc(b1-3)Gal
  glycan array binding signal (z-score): 0.027
[18]
  glycan array binding signal (z-score): -0.351
[19]
  glycan array binding signal (z-score): 0.103
[20]
  glycan array binding signal (z-score): -0.798
Gal(b1-3)GlcNAc
  glycan array binding signal (z-score): -0.823
[21]
  glycan array binding signal (z-score): 1.17
[22]
  glycan array binding signal (z-score): 0.14
Gal(b1-3)GlcNAc(b1-2)Man
  glycan array binding signal (z-score): 3.17
[23]
  glycan array binding signal (z-score): 0.05
